From the supplement of paper PMC4604168 (melanoma cell lines)
The other results are listed elsewhere or left out. Single values are uncertain, as repeats are few or missing.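 Imaging used 1,536-well plates; nuclei positive for cleaved PARP by antibody were divided by total DNA-stained nuclei to yield the apoptosis fraction. Doses for screening kept most cells viable, and cell lines differ markedly in resting and induced cleaved-PARP levels.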

Columns and labels:
Test in all cases: cleaved PARP positive nuclei fraction relative to DMSO control; melanoma cells; higher = more apoptosis
Details in all cases: library dose: low library concentration; 72 h
[1] = test system: MZ2-MEL
[2] = test system: MeWo
[3] = test system: RPMI7951
[4] = test system: RVH-421
[5] = test system: SkMel28
[6] = test system: SkMel2
[7] = test system: SkMel30
[8] = test system: SkMel5
[9] = test system: UACC257
[10] = test system: UACC62
[11] = test system: WM115
[12] = test system: WM1716
[13] = test system: WM1745
[14] = test system: WM3526
[15] = test system: WM3619
[16] = test system: WM451Lu

SMILES	cleaved PARP positive nuclei fraction [1] [%]	cleaved PARP positive nuclei fraction [2] [%]	cleaved PARP positive nuclei fraction [3] [%]	cleaved PARP positive nuclei fraction [4] [%]	cleaved PARP positive nuclei fraction [5] [%]	cleaved PARP positive nuclei fraction [6] [%]	cleaved PARP positive nuclei fraction [7] [%]	cleaved PARP positive nuclei fraction [8] [%]	cleaved PARP positive nuclei fraction [9] [%]	cleaved PARP positive nuclei fraction [10] [%]	cleaved PARP positive nuclei fraction [11] [%]	cleaved PARP positive nuclei fraction [12] [%]	cleaved PARP positive nuclei fraction [13] [%]	cleaved PARP positive nuclei fraction [14] [%]	cleaved PARP positive nuclei fraction [15] [%]	cleaved PARP positive nuclei fraction [16] [%]
CN1CCN(c2ccc3nc(-c4c(N)c5c(F)cccc5[nH]c4=O)[nH]c3c2)CC1 [Dovitinib] + NC(=O)Nc1cc(-c2cccc(F)c2)sc1C(=O)N[C@H]1CCCNC1 [AZD7762] (first compound 0.1 µM, partner dose 0.02 µM)	73.9	70.2	182	58.8	95.6	56.5	64.9	97.9	70.9	105	75.8	126	99.3	227	124	32.5
Cc1cc(Nc2cc(N3CCN(C)CC3)nc(/C=C/c3ccccc3)n2)n[nH]1 + CCCCCCCCCCCC1=C(O)C(=O)C=C(O)C1=O [Embelin] (first compound 0.04 µM, partner dose 1.2 µM)	56.9	117	28.6	233	145	118	38.9	34.4	144	145	94.1	47.8	106	86.4	105	74
CN1CCN(c2ccc3nc(-c4c(N)c5c(F)cccc5[nH]c4=O)[nH]c3c2)CC1 [Dovitinib] + O=C(Nc1ccccc1)c1cc([N+](=O)[O-])ccc1Cl [GW9662] (first compound 0.1 µM, partner dose 2 µM)	109	59.1	153	76.9	167	69.8	47.6	67.6	599	101	263	70.7	96.5	93.6	81.6	138
CCCS(=O)(=O)Nc1ccc(F)c(C(=O)c2c[nH]c3ncc(Cl)cc23)c1F + CN(NC(=O)CC(=O)NN(C)C(=S)c1ccccc1)C(=S)c1ccccc1 [STA4783] (first compound 0.08 µM, partner dose 0.006 µM)	122	114	29.1	66.6	240	40.3	299	117	247	495	303	150	206	126	207	73.4
O=C(O)[C@@H]1[O][Sb](=[O])([O][Sb]2(=[O])[O][C@H]([C@H](O)CO)[C@H](O)[C@H](C(=O)O)[O]2)[O][C@H]([C@H](O)CO)[C@@H]1O (stereo partly drawn) [stibogluconate] + NCC(=O)Nc1ccc(-n2nc(C(F)(F)F)cc2-c2ccc3c(ccc4ccccc43)c2)cc1 [OSU03012] (first compound 2 µM, partner dose 1 µM)	72.5	224	58.8	94.9	134	95.4	99.8	150	49.3	67.2	148	94.7	90.8	167	94.3	271
Nc1nc(F)nc2c1ncn2[C@@H]1O[C@H](CO)[C@@H](O)[C@@H]1O [fludarabine] + CN(C)S(=O)(=O)c1ccc2c(c1)/C(=C/c1cc3c([nH]1)CCCC3)C(=O)N2 [SU6656] (first compound 0.2 µM, partner dose 0.4 µM)	98.9	559	27.1	96.2	339	467	446	372	162	150	81.3	84	91.9	420	99.3	82.5
O=C(O)[C@@H]1[O][Sb](=[O])([O][Sb]2(=[O])[O][C@H]([C@H](O)CO)[C@H](O)[C@H](C(=O)O)[O]2)[O][C@H]([C@H](O)CO)[C@@H]1O (stereo partly drawn) [stibogluconate] + Oc1nc(-c2ccc(C(F)(F)F)cc2)nc2c1CSCC2 [XAV939] (first compound 2 µM, partner dose 2 µM)	76.1	150	79.4	152	89.1	115	135	193	175	63	114	472	277	63.9	108	39.3
Nc1ccn([C@@H]2O[C@H](CO)[C@@H](O)C2(F)F)c(=O)n1 [gemcitabine] + Cc1ccc(NC(=O)c2cccc(N(C)C)c2)cc1NC(=O)c1ccc(O)cc1 [ZM336372] (first compound 0.0004 µM, partner dose 2 µM)	124	85.3	121	77.7	66.2	57.7	145	69.5	181	103	67.6	64.9	115	113	102	178
O=C(O)c1ccc2c(c1)nc(Nc1cccc(Cl)c1)c1ccncc12 + CO[C@@H]1[C@H](N(C)C(=O)c2ccccc2)C[C@H]2O[C@]1(C)n1c3ccccc3c3c4c(c5c6ccccc6n2c5c31)C(=O)NC4 [Midostaurin] (first compound 0.4 µM, partner dose 0.08 µM)	199	586	34.6	84.1	102	84.7	425	129	77.1	185	276	144	110	90	117	55.1
O=C(O)c1ccc2c(c1)nc(Nc1cccc(Cl)c1)c1ccncc12 + CCc1ccc(CCOc2ccc(CC3SC(=O)NC3=O)cc2)nc1 [pioglitazone] (first compound 0.4 µM, partner dose 2 µM)	95.3	60.4	86.9	83.9	107	54.2	204	76.4	191	74.5	89.6	176	88.4	85.8	94.7	75.2
CC(C)C[C@H](NC(=O)[C@H](Cc1ccccc1)NC(=O)c1cnccn1)B(O)O [Bortezomib] + O=S(=O)(c1ccccc1)N(CC(F)(F)F)c1ccc(C(O)(C(F)(F)F)C(F)(F)F)cc1 [T0901317] (first compound 0.001 µM, partner dose 1.4 µM)	407	52.1	812	390	207	119	120	80.8	385	248	101	4970	195	90.5	668	203
Cn1c(=O)n(-c2ccc(C(C)(C)C#N)cc2)c2c3cc(-c4cnc5ccccc5c4)ccc3ncc21 + CC(C)CCN1c2nc(Nc3cc(F)c(O)c(F)c3)ncc2N(C)C(=O)C1C [BID1870] (first compound 0.004 µM, partner dose 0.2 µM)	90.8	48.2	61.9	88.5	176	98.7	30.2	138	139	299	155	117	105	66.3	79.7	255
Cn1c(=O)n(-c2ccc(C(C)(C)C#N)cc2)c2c3cc(-c4cnc5ccccc5c4)ccc3ncc21 + O=C(Nc1cccc(Cl)c1)Nc1ncc(CCNc2ncnc3ccsc23)s1 [SNS314] (first compound 0.004 µM, partner dose 0.0008 µM)	172	62	100	135	94	132	190	140	55.9	131	198	98.7	105	72.5	105	64.1
C=C(c1ccc(C(=O)O)cc1)c1cc2c(cc1C)C(C)(C)CCC2(C)C [Bexarotene] + O=S(=O)(c1ccccc1)N(CC(F)(F)F)c1ccc(C(O)(C(F)(F)F)C(F)(F)F)cc1 [T0901317] (first compound 2 µM, partner dose 1.4 µM)	91.6	56.9	114	76.5	274	312	33.1	77.9	39.3	60.8	52.7	194	128	175	97.7	43
CNC(=O)c1cc(Oc2ccc(NC(=O)Nc3ccc(Cl)c(C(F)(F)F)c3)cc2)ccn1 [sorafenib] + COc1ccc(-c2ccc3c(N4CCOCC4)nc(N4C[C@@H](C)O[C@@H](C)C4)nc3n2)cc1CO [KU0063794] (first compound 0.4 µM, partner dose 0.02 µM)	185	49.1	70.8	188	623	130	94.7	84.2	155	110	168	129	96.5	78.9	95.7	155
O=C(O)c1ccc2c(c1)nc(Nc1cccc(Cl)c1)c1ccncc12 + Cc1ccc(NC(=O)c2cccc(N(C)C)c2)cc1NC(=O)c1ccc(O)cc1 [ZM336372] (first compound 0.4 µM, partner dose 2 µM)	96	91	217	123	54.3	140	86.4	60.2	161	137	123	171	112	72.2	111	169
Nc1nc(F)nc2c1ncn2[C@@H]1O[C@H](CO)[C@@H](O)[C@@H]1O [fludarabine] + O=C(Nc1cccc(Cl)c1)Nc1ncc(CCNc2ncnc3ccsc23)s1 [SNS314] (first compound 0.2 µM, partner dose 0.0008 µM)	80.1	332	345	394	117	460	392	484	227	174	46.5	131	107	89.3	66.4	85.5
CCCS(=O)(=O)Nc1ccc(F)c(C(=O)c2c[nH]c3ncc(Cl)cc23)c1F + CO[C@@H]1[C@H](N(C)C(=O)c2ccccc2)C[C@H]2O[C@]1(C)n1c3ccccc3c3c4c(c5c6ccccc6n2c5c31)C(=O)NC4 [Midostaurin] (first compound 0.08 µM, partner dose 0.08 µM)	116	114	47.1	123	75.7	60.9	55.1	92.6	68.8	113	54.2	51.8	99.9	92.5	139	244

An excerpt of these results, with bars between the fields.
SMILES | cleaved PARP positive nuclei fraction [1] [%] | cleaved PARP positive nuclei fraction [2] [%] | cleaved PARP positive nuclei fraction [3] [%] | cleaved PARP positive nuclei fraction [4] [%] | cleaved PARP positive nuclei fraction [5] [%] | cleaved PARP positive nuclei fraction [6] [%] | cleaved PARP positive nuclei fraction [7] [%] | cleaved PARP positive nuclei fraction [8] [%] | cleaved PARP positive nuclei fraction [9] [%] | cleaved PARP positive nuclei fraction [10] [%] | cleaved PARP positive nuclei fraction [11] [%] | cleaved PARP positive nuclei fraction [12] [%] | cleaved PARP positive nuclei fraction [13] [%] | cleaved PARP positive nuclei fraction [14] [%] | cleaved PARP positive nuclei fraction [15] [%] | cleaved PARP positive nuclei fraction [16] [%]
Cc1cc(Nc2cc(N3CCN(C)CC3)nc(/C=C/c3ccccc3)n2)n[nH]1 + CCCCCCCCCCCC1=C(O)C(=O)C=C(O)C1=O [Embelin] (first compound 0.04 µM, partner dose 1.2 µM) | 56.9 | 117 | 28.6 | 233 | 145 | 118 | 38.9 | 34.4 | 144 | 145 | 94.1 | 47.8 | 106 | 86.4 | 105 | 74
CCCS(=O)(=O)Nc1ccc(F)c(C(=O)c2c[nH]c3ncc(Cl)cc23)c1F + CN(NC(=O)CC(=O)NN(C)C(=S)c1ccccc1)C(=S)c1ccccc1 [STA4783] (first compound 0.08 µM, partner dose 0.006 µM) | 122 | 114 | 29.1 | 66.6 | 240 | 40.3 | 299 | 117 | 247 | 495 | 303 | 150 | 206 | 126 | 207 | 73.4
Nc1ccn([C@@H]2O[C@H](CO)[C@@H](O)C2(F)F)c(=O)n1 [gemcitabine] + Cc1ccc(NC(=O)c2cccc(N(C)C)c2)cc1NC(=O)c1ccc(O)cc1 [ZM336372] (first compound 0.0004 µM, partner dose 2 µM) | 124 | 85.3 | 121 | 77.7 | 66.2 | 57.7 | 145 | 69.5 | 181 | 103 | 67.6 | 64.9 | 115 | 113 | 102 | 178
C=C(c1ccc(C(=O)O)cc1)c1cc2c(cc1C)C(C)(C)CCC2(C)C [Bexarotene] + O=S(=O)(c1ccccc1)N(CC(F)(F)F)c1ccc(C(O)(C(F)(F)F)C(F)(F)F)cc1 [T0901317] (first compound 2 µM, partner dose 1.4 µM) | 91.6 | 56.9 | 114 | 76.5 | 274 | 312 | 33.1 | 77.9 | 39.3 | 60.8 | 52.7 | 194 | 128 | 175 | 97.7 | 43
